PubChem BioAssay AID1259308 | NCATS | 2017
Assay: 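Candidate targets for better recombinant protein yield in mammalian cells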 (primary screen). Cell system: human HEK293 embryonic kidney cells stably expressing firefly luciferase (HEK-CMV-Luc2-Hygro). Knock-down reagent: single siRNA against human genes, 0.8 pmol siRNA per well. Duration: 72 h. Measurement: 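Reporter luminescence and viable-cell signal on separate replicate plates, given as percent of non-targeting control and median/MAD z-scores, plus per-cell luciferase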. Scale: total luciferase, z-score and total luciferase, % of control: higher = more reporter protein produced; luciferase per cell, z-score: higher = more reporter output per viable cell; viable cells, % of control: higher = more viable cells. Call rule: 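An siRNA counts as active if its total luciferase robust z-score exceeds 3; genes with two or more such siRNAs out of three were retested with fresh siRNAs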. Meaning of the calls: active = raised luciferase; inactive = no rise.
Here is a random part of about 59,000 deposited reagents. In the full data, about 1,510 (2.6%) are marked active. 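Calls use total luciferase alone and ignore viability, so some active siRNAs may act by altering cell number.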 The numbers tell different reagents against one gene apart.

| gene knocked down | siRNA no. | total luciferase, z-score | total luciferase, % of control | luciferase per cell, z-score | viable cells, % of control | call |
| --- | --- | --- | --- | --- | --- | --- |
| SEMA3F | 1 | 0.38 | 89.4 | -0.187 | 105 | inactive |
| SEMA3F | 2 | 2.8 | 138 | 1.64 | 100 | inactive |
| SEMA3F | 3 | 0.147 | 84.8 | -0.644 | 112 | inactive |
| SLC12A5 | 1 | -1 | 62 | -0.849 | 86.6 | inactive |
| SLC12A5 | 2 | -1.33 | 55.5 | -1.18 | 84.7 | inactive |
| SLC12A5 | 3 | -0.307 | 75.8 | 1.08 | 63.7 | inactive |
| SLC9B1 | 1 | 0.74 | 96.6 | -0.33 | 118 | inactive |
| SLC9B1 | 2 | 0.351 | 88.9 | 0.568 | 85.5 | inactive |
| SLC9B1 | 3 | 0.703 | 95.9 | 1.32 | 75.7 | inactive |
| CSPP1 | 1 | -1.1 | 60 | -0.479 | 76.1 | inactive |
| CSPP1 | 2 | -0.0386 | 81.1 | -0.618 | 107 | inactive |
| CSPP1 | 3 | -1.08 | 60.4 | -0.225 | 71.7 | inactive |
| NAPG | 1 | -0.136 | 79.2 | -0.0885 | 90.6 | inactive |
| NAPG | 2 | -0.0657 | 80.6 | 0.182 | 85.8 | inactive |
| NAPG | 3 | 0.388 | 89.6 | 0.605 | 85.4 | inactive |
| MTMR4 | 1 | -0.0894 | 80.1 | 2.21 | 50.1 | inactive |
| MTMR4 | 2 | -2.47 | 32.8 | -3.1 | 82.9 | inactive |
| MTMR4 | 3 | 0.612 | 94.1 | -0.056 | 107 | inactive |
| CACNA1D | 1 | -0.383 | 74.3 | -0.0485 | 84.1 | inactive |
| CACNA1D | 2 | 0.326 | 88.4 | -0.11 | 102 | inactive |
| CACNA1D | 3 | -2.64 | 29.3 | -3.73 | 87.5 | inactive |
| ELOB | 1 | -0.0365 | 81.2 | 0.85 | 72.5 | inactive |
| ELOB | 2 | 2.56 | 133 | 2.26 | 81.8 | inactive |
| ELOB | 3 | 1.26 | 107 | 1.05 | 90.8 | inactive |
| LIPT1 | 1 | -0.661 | 68.7 | -1.17 | 104 | inactive |
| LIPT1 | 2 | 0.582 | 93.5 | 0.898 | 82.5 | inactive |
| LIPT1 | 3 | 0.0758 | 83.4 | -0.0695 | 94.9 | inactive |
| DGKZ | 1 | 0.262 | 87.1 | -0.346 | 107 | inactive |
| DGKZ | 2 | -0.389 | 74.2 | -0.656 | 98.5 | inactive |
| DGKZ | 3 | 1.2 | 106 | 2.18 | 66.6 | inactive |
| HELLS | 1 | 1.68 | 115 | 1.7 | 82.4 | inactive |
| HELLS | 2 | -0.356 | 74.8 | -0.518 | 95.8 | inactive |
| HELLS | 3 | 0.567 | 93.2 | -0.223 | 110 | inactive |
| CYTOR | 1 | 3.07 | 143 | 3.56 | 62.5 | active |
| CYTOR | 2 | -0.742 | 67.1 | 0.534 | 65.2 | inactive |
| CYTOR | 3 | -1.04 | 61.3 | -1.43 | 99.9 | inactive |
| VSX2 | 1 | -0.0897 | 80.1 | 0.751 | 73.5 | inactive |
| VSX2 | 2 | 2.18 | 125 | 2.3 | 76.4 | inactive |
| VSX2 | 3 | -0.562 | 70.7 | 0.348 | 72.1 | inactive |
| ADCY5 | 1 | 1.13 | 104 | 1.42 | 80.1 | inactive |
| ADCY5 | 2 | -0.119 | 79.5 | -0.578 | 103 | inactive |
| ADCY5 | 3 | 2.5 | 132 | 1.33 | 103 | inactive |
| RAB10 | 1 | 3.79 | 157 | 1.99 | 104 | active |
| RAB10 | 2 | -0.641 | 69.1 | -0.787 | 95 | inactive |
| RAB10 | 3 | -2.92 | 23.9 | -3.82 | 73 | inactive |
| THUMPD1 | 1 | -0.863 | 64.7 | -0.113 | 74.5 | inactive |
| THUMPD1 | 2 | 1.67 | 115 | 0.824 | 104 | inactive |
| THUMPD1 | 3 | -0.321 | 75.5 | -0.164 | 88.1 | inactive |
| AGMO | 1 | 0.332 | 88.5 | 0.208 | 93.6 | inactive |
| AGMO | 2 | -0.0799 | 80.3 | 0.538 | 77.9 | inactive |
| AGMO | 3 | 1.01 | 102 | 0.161 | 109 | inactive |
| CEP250 | 1 | -0.786 | 66.3 | 1.02 | 56.6 | inactive |
| CEP250 | 2 | -0.267 | 76.6 | 0.307 | 78.9 | inactive |
| CEP250 | 3 | -0.44 | 73.1 | -0.11 | 84.1 | inactive |
| RPL27P8 | 1 | 1.28 | 107 | 1.26 | 86.1 | inactive |
| RPL27P8 | 2 | -0.122 | 79.5 | -0.0613 | 90.2 | inactive |
| RPL27P8 | 3 | -2.6 | 30.1 | -2.11 | 58.6 | inactive |
| PLD2 | 1 | 0.528 | 92.4 | -0.361 | 114 | inactive |
| PLD2 | 2 | 0.734 | 96.5 | 0.921 | 84.6 | inactive |
| PLD2 | 3 | 1.4 | 110 | 1.17 | 90.1 | inactive |
| KPNA3 | 1 | 0.0141 | 82.2 | -0.257 | 98.2 | inactive |
| KPNA3 | 2 | 0.554 | 92.9 | 0.401 | 93.4 | inactive |
| KPNA3 | 3 | 0.45 | 90.8 | -0.301 | 110 | inactive |
| ACSBG1 | 1 | 0.0658 | 83.2 | -0.214 | 98.4 | inactive |
| ACSBG1 | 2 | 0.361 | 89.1 | 1.15 | 73.6 | inactive |
| ACSBG1 | 3 | -0.353 | 74.9 | -0.619 | 98.5 | inactive |
| CAPN6 | 1 | 0.365 | 89.1 | -0.27 | 107 | inactive |
| CAPN6 | 2 | -0.457 | 72.8 | -0.321 | 88.5 | inactive |
| CAPN6 | 3 | -0.81 | 65.8 | -0.0706 | 74.9 | inactive |
| CPA2 | 1 | -0.0443 | 81 | -0.122 | 93.5 | inactive |
| CPA2 | 2 | -0.567 | 70.6 | -0.816 | 97.8 | inactive |
| CPA2 | 3 | -0.51 | 71.7 | -0.402 | 89.1 | inactive |
| MLXIPL | 1 | -1.34 | 55.2 | -1.29 | 86.6 | inactive |
| MLXIPL | 2 | -2.71 | 28 | -2.17 | 55.4 | inactive |
| MLXIPL | 3 | -1.22 | 57.6 | -1.59 | 97.7 | inactive |

Part of the list above in another layout:
{"gene knocked down": "ELOB", "siRNA no.": 2, "total luciferase, z-score": 2.56, "total luciferase, % of control": 133, "luciferase per cell, z-score": 2.26, "viable cells, % of control": 81.8, "call": "inactive"}
{"gene knocked down": "ELOB", "siRNA no.": 3, "total luciferase, z-score": 1.26, "total luciferase, % of control": 107, "luciferase per cell, z-score": 1.05, "viable cells, % of control": 90.8, "call": "inactive"}
{"gene knocked down": "LIPT1", "siRNA no.": 1, "total luciferase, z-score": -0.661, "total luciferase, % of control": 68.7, "luciferase per cell, z-score": -1.17, "viable cells, % of control": 104, "call": "inactive"}
{"gene knocked down": "LIPT1", "siRNA no.": 2, "total luciferase, z-score": 0.582, "total luciferase, % of control": 93.5, "luciferase per cell, z-score": 0.898, "viable cells, % of control": 82.5, "call": "inactive"}
{"gene knocked down": "LIPT1", "siRNA no.": 3, "total luciferase, z-score": 0.0758, "total luciferase, % of control": 83.4, "luciferase per cell, z-score": -0.0695, "viable cells, % of control": 94.9, "call": "inactive"}
{"gene knocked down": "DGKZ", "siRNA no.": 1, "total luciferase, z-score": 0.262, "total luciferase, % of control": 87.1, "luciferase per cell, z-score": -0.346, "viable cells, % of control": 107, "call": "inactive"}
{"gene knocked down": "DGKZ", "siRNA no.": 2, "total luciferase, z-score": -0.389, "total luciferase, % of control": 74.2, "luciferase per cell, z-score": -0.656, "viable cells, % of control": 98.5, "call": "inactive"}
{"gene knocked down": "DGKZ", "siRNA no.": 3, "total luciferase, z-score": 1.2, "total luciferase, % of control": 106, "luciferase per cell, z-score": 2.18, "viable cells, % of control": 66.6, "call": "inactive"}
